In series [1] the target is T1, monomeric C-reactive protein (mCRP) (human) (UniProt P02741).
T1 sequence (looked up, limits assumed): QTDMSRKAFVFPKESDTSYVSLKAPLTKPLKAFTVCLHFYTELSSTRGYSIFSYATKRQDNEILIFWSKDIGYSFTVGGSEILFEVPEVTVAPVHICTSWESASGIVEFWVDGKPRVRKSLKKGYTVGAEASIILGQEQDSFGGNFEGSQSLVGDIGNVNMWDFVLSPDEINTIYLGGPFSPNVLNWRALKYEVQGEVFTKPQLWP
Briefly: binding assay. The conditions noted are these: No direct binding assay in this paper (only cell-free TX-TL mRFP1 riboswitch reporter assays, left out); Kd values are cited and their conditions are not given. In general terms: In a reporter assay the amount or activity of a reporter protein is the signal.

The target in series [2] is T2, interleukin-32 gamma (IL-32γ) (human) (UniProt P24001).
T2 sequence (looked up, limits assumed): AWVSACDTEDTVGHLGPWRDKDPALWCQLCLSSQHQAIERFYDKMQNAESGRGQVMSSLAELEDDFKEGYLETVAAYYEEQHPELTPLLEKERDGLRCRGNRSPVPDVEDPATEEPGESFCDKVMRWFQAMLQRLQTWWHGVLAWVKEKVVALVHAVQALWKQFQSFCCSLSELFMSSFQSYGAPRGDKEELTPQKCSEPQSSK
Briefly: binding assay. The conditions noted are these: No direct binding assay in this paper (only cell-free TX-TL mRFP1 riboswitch reporter assays, left out); Kd values are cited and their conditions are not given.

Construct, isoform or probe ends are uncertain for at least one entry. Tags and fusion partners may be left off the protein sequences shown.

A word on the Kd: it is a measure of binding affinity in units of concentration. “GCCUGUAAGGUGGUCGGUGUGGCGAGUGUGUUAGGAGAGAUUGC [VT2d0 (full), mCRP aptamer, 44 nt]” registered a Kd in series [1] of 188 nM.

For the sequence “GGGUUCACUGCAGACUUGACGAAGCUUCCGGAGAGAAGGGUCAAAGUUGUGCGGGAGUGUGUUGUGGAAUGGAUCCACAUCUACGAAUUC [AC3-3 (full), IL-32γ aptamer, 90 nt]”, the Kd in series [2] came out at 78 nM. This lies in the double-digit nanomolar range.

For the origin of these results see article PMC10140043.
